Results are given in words; binding and its absence hold for the method and conditions named. Binding seen in cells or lysates may run through a third protein. Some entries that bind do so weakly or less than the wild type. Sequences can lack the tags named with a protein.

The chains behind the UniProt entries cited, without tags or fusion partners. Residues count along the entry.
UniProt P47871, residues 26-477: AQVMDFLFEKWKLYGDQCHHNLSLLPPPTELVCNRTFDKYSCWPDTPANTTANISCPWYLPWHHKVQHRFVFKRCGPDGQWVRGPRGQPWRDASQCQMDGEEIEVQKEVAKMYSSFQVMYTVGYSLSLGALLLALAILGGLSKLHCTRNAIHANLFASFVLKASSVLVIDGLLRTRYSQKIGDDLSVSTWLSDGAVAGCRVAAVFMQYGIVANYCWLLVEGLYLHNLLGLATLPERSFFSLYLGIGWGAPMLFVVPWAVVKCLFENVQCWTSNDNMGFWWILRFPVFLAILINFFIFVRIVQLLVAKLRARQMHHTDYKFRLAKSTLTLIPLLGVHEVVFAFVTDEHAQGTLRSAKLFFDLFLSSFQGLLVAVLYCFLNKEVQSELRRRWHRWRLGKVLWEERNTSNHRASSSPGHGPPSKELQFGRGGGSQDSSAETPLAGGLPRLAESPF

This assay has as its target glucagon receptor GCGR-MYC-FLAG (UniProt P47871). As to the kind of experiment: co-IP; GCGR-MYC-FLAG immunoprecipitated with anti-FLAG M2 affinity beads from lysates of stably transfected HEK-293 cells (serum-starved 1 h, unstimulated or 200 nM glucagon for the indicated times); lysis buffer 50 mM HEPES pH 7.5, 2 mM EDTA, 250 mM NaCl, 10% glycerol, 0.5% IGEPAL CA-630, 10 mM N-ethylmaleimide; overnight at 4 °C; eluates immunoblotted for the deubiquitinases. On the technique in general: In western blotting, separated proteins are transferred to a membrane and probed.

B1: ubiquitin-specific protease 33 (USP33) (enzyme, UniProt Q8TEY7 1-942)
chain: MTGSNSHITILTLKVLPHFESLGKQEKIPNKMSAFRNHCPHLDSVGEITKEDLIQKSLGTCQDCKVQGPNLWACLENRCSYVGCGESQVDHSTIHSQETKHYLTVNLTTLRVWCYACSKEVFLDRKLGTQPSLPHVRQPHQIQENSVQDFKIPSNTTLKTPLVAVFDDLDIEADEEDELRARGLTGLKNIGNTCYMNAALQALSNCPPLTQFFLDCGGLARTDKKPAICKSYLKLMTELWHKSRPGSVVPTTLFQGIKTVNPTFRGYSQQDAQEFLRCLMDLLHEELKEQVMEVEEDPQTITTEETMEEDKSQSDVDFQSCESCSNSDRAENENGSRCFSEDNNETTMLIQDDENNSEMSKDWQKEKMCNKINKVNSEGEFDKDRDSISETVDLNNQETVKVQIHSRASEYITDVHSNDLSTPQILPSNEGVNPRLSASPPKSGNLWPGLAPPHKKAQSASPKRKKQHKKYRSVISDIFDGTIISSVQCLTCDRVSVTLETFQDLSLPIPGKEDLAKLHSSSHPTSIVKAGSCGEAYAPQGWIAFFMEYVKRFVVSCVPSWFWGPVVTLQDCLAAFFARDELKGDNMYSCEKCKKLRNGVKFCKVQNFPEILCIHLKRFRHELMFSTKISTHVSFPLEGLDLQPFLAKDSPAQIVTYDLLSVICHHGTASSGHYIAYCRNNLNNLWYEFDDQSVTEVSESTVQNAEAYVLFYRKSSEEAQKERRRISNLLNIMEPSLLQFYISRQWLNKFKTFAEPGPISNNDFLCIHGGVPPRKAGYIEDLVLMLPQNIWDNLYSRYGGGPAVNHLYICHTCQIEAEKIEKRRKTELEIFIRLNRAFQKEDSPATFYCISMQWFREWESFVKGKDGDPPGPIDNTKIAVTKCGNVMLRQGADSGQISEETWNFLQSIYGGGPEVILRPPVVHVDPDILQAEEKIEVETRSL
In the case of B1, the binding entry is recorded as “binds”.

B2: signal-transducing adaptor molecule-binding protein (STAMBP) (enzyme, UniProt O95630 1-424)
chain: MSDHGDVSLPPEDRVRALSQLGSAVEVNEDIPPRRYFRSGVEIIRMASIYSEEGNIEHAFILYNKYITLFIEKLPKHRDYKSAVIPEKKDTVKKLKEIAFPKAEELKAELLKRYTKEYTEYNEEKKKEAEELARNMAIQQELEKEKQRVAQQKQQQLEQEQFHAFEEMIRNQELEKERLKIVQEFGKVDPGLGGPLVPDLEKPSLDVFPTLTVSSIQPSDCHTTVRPAKPPVVDRSLKPGALSNSESIPTIDGLRHVVVPGRLCPQFLQLASANTARGVETCGILCGKLMRNEFTITHVLIPKQSAGSDYCNTENEEELFLIQDQQGLITLGWIHTHPTQTAFLSSVDLHTHCSYQMMLPESVAIVCSPKFQETGFFKLTDHGLEEISSCRQKGFHPHSKDPPLFCSCSHVTVVDRAVTITDLR
For the molecule B2, the binding result is on record as “binds”.

Values taken from article PMC7864061.
